This note sets out measurements from PubChem BioAssay AID192 (DTP/NCI, 2004).

The test concerns BDF1 mice, B16 melanoma ip, median survival T/C. The test is described as follows: NCI In Vivo Anticancer Drug Screen. Data for tumor model B16 Melanoma (intraperitoneal) in B6D2F1 (BDF1) mice. The note with it: T/C endpoint: median survival time, schedule: Q01DX009 (ip), vehicle: saline with Tween-80, higher T/C = longer survival. In a few lines: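 Survival or tumor size is measured after treatment of tumor-bearing mice and normalised to the vehicle-treated control group.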

Each structure is given as a SMILES string. The list does not hold the whole screen: it gathers tests that were run many times, whatever their T/C, doses with no T/C, and many T/C values between a quarter and a half above the control. Further doses and runs are listed elsewhere. T/C gives the treated animals as a percentage of the vehicle group. Some doses have a count of surviving animals in place of a T/C: the source holds a T/C of zero for them, seemingly a mark for toxic or unscored doses. Some doses without a T/C left all or most animals alive at the check, yet need not have been tolerated: the source hardly ever lists a survival T/C far under the control, and the zero likely stands for such cases as well. Counts of survivors are from the toxicity check (mostly the fifth day) where no day follows; animals may have died later. Schedule codes are those of the source, taken here to give the interval after Q, in days (D) or hours (H), and the number of doses after X.

Take `O=C(O)c1cccc(S(=O)(=O)N(CCO)CCO)c1`: the survivor count was 10 of 10 (dose: 100.0 mg/kg/injection) and 10 of 10 (dose: 200.0 mg/kg/injection).
